Laboratory results taken from the supplement of paper PMC8728848.
The list shows a part of the results.

What was measured:
Assay in all cases: glycan array binding signal (z-score within array); higher = stronger binding
Settings in all cases: glycan notation: IUPAC condensed, linker removed
[1] = biological target: Neu5Ac(a2-3)Gal(b1-3)[Fuc(a1-4)]GlcNAc(b1-3)Gal(b1-3)[Fuc(a1-4)]GlcNAc
How it was run: (§1)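 Glycan array binding is given as a within-array Z-score, which can be read as non-binding when negative. The arrays, 3228 of them, came from the Consortium for Functional Glycomics database and were retained only where the protein sequence was available. Z-scores were averaged across arrays of the same protein sequence at different concentrations or buffers and across linkers.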

[2] = biological target: Neu5Ac(a2-3)Gal(b1-3)[Fuc(a1-4)]GlcNAc(b1-3)Gal(b1-4)[Fuc(a1-3)]GlcNAc
How it was run: as §1

[3] = biological target: Neu5Ac(a2-3)Gal(b1-3)[GlcNAc(b1-6)]GalNAc
How it was run: as §1

[4] = biological target: Neu5Ac(a2-3)Gal(b1-3)[Neu5Ac(a2-6)]GalNAc
How it was run: as §1

[5] = biological target: Neu5Ac(a2-3)Gal(b1-3)[Neu5Ac(a2-6)]GlcNAc(b1-3)[Fuc(a1-3)[Gal(b1-4)]GlcNAc(b1-6)]Gal(b1-4)Glc
How it was run: as §1

[6] = biological target: Neu5Ac(a2-3)Gal(b1-3)]Neu5Ac(a2-3)Gal(b1-4)]GlcNAc
How it was run: as §1

Neu5Ac(a2-3)Gal(b1-4)Glc = biological target: Neu5Ac(a2-3)Gal(b1-4)Glc
How it was run: as §1

[7] = biological target: Neu5Ac(a2-3)Gal(b1-4)GlcNAc
How it was run: as §1

[8] = biological target: Neu5Ac(a2-3)Gal(b1-4)GlcNAc(b1-2)Man
How it was run: as §1

[9] = biological target: Neu5Ac(a2-3)Gal(b1-4)GlcNAc(b1-2)Man(a1-3)[GlcNAc(b1-4)][Neu5Ac(a2-3)Gal(b1-4)GlcNAc(b1-2)Man(a1-6)]Man(b1-4)GlcNAc(b1-4)GlcNAc
How it was run: as §1

[10] = biological target: Neu5Ac(a2-3)Gal(b1-4)GlcNAc(b1-2)Man(a1-3)[Neu5Ac(a2-3)Gal(b1-4)GlcNAc(b1-2)Man(a1-6)]Man(b1-4)GlcNAc(b1-4)GlcNAc
How it was run: as §1

[11] = biological target: Neu5Ac(a2-3)Gal(b1-4)GlcNAc(b1-2)Man(a1-3)[Neu5Ac(a2-3)Gal(b1-4)GlcNAc(b1-2)Man(a1-6)]Man(b1-4)GlcNAc(b1-4)[Fuc(a1-6)]GlcNAc
How it was run: as §1

[12] = biological target: Neu5Ac(a2-3)Gal(b1-4)GlcNAc(b1-2)Man(a1-3)[Neu5Ac(a2-6)Gal(b1-4)GlcNAc(b1-2)Man(a1-6)]Man(b1-4)GlcNAc(b1-4)GlcNAc
How it was run: as §1

[13] = biological target: Neu5Ac(a2-3)Gal(b1-4)GlcNAc(b1-2)[Neu5Ac(a2-3)Gal(b1-4)GlcNAc(b1-2)]Man(a1-6)[Neu5Ac(a2-3)Gal(b1-4)GlcNAc(b1-2)Man(a1-3)][GlcNAc(b1-4)]Man(b1-4)GlcNAc(b1-4)GlcNAc
How it was run: as §1

[14] = biological target: Neu5Ac(a2-3)Gal(b1-4)GlcNAc(b1-2)[Neu5Ac(a2-3)Gal(b1-4)GlcNAc(b1-4)]Man(a1-3)[GlcNAc(b1-4)][Neu5Ac(a2-3)Gal(b1-4)GlcNAc(b1-2)[Neu5Ac(a2-3)Gal(b1-4)GlcNAc(b1-6)]Man(a1-6)]Man(b1-4)GlcNAc(b1-4)GlcNAc
How it was run: as §1

[15] = biological target: Neu5Ac(a2-3)Gal(b1-4)GlcNAc(b1-2)[Neu5Ac(a2-3)Gal(b1-4)GlcNAc(b1-4)]Man(a1-3)[GlcNAc(b1-4)][Neu5Ac(a2-3)Gal(b1-4)GlcNAc(b1-4)Man(a1-6)]Man(b1-4)GlcNAc(b1-4)GlcNAc
How it was run: as §1

[16] = biological target: Neu5Ac(a2-3)Gal(b1-4)GlcNAc(b1-2)[Neu5Ac(a2-3)Gal(b1-4)GlcNAc(b1-6)]Man(a1-6)[Neu5Ac(a2-3)Gal(b1-4)GlcNAc(b1-2)Man(a1-3)]Man(b1-4)GlcNAc(b1-4)GlcNAc
How it was run: as §1

[17] = biological target: Neu5Ac(a2-3)Gal(b1-4)GlcNAc(b1-3)Gal
How it was run: as §1

[18] = biological target: Neu5Ac(a2-3)Gal(b1-4)GlcNAc(b1-3)Gal(b1-3)GlcNAc
How it was run: as §1

[19] = biological target: Neu5Ac(a2-3)Gal(b1-4)GlcNAc(b1-3)Gal(b1-4)GlcNAc
How it was run: as §1

[20] = biological target: Neu5Ac(a2-3)Gal(b1-4)GlcNAc(b1-3)Gal(b1-4)GlcNAc(b1-2)Man(a1-3)[Neu5Ac(a2-3)Gal(b1-4)GlcNAc(b1-3)Gal(b1-4)GlcNAc(b1-2)Man(a1-6)]Man(b1-4)GlcNAc(b1-4)GlcNAc
How it was run: as §1

[21] = biological target: Neu5Ac(a2-3)Gal(b1-4)GlcNAc(b1-3)Gal(b1-4)GlcNAc(b1-3)Gal(b1-4)GlcNAc
How it was run: as §1

[22] = biological target: Neu5Ac(a2-3)Gal(b1-4)GlcNAc(b1-3)Gal(b1-4)GlcNAc(b1-3)Gal(b1-4)GlcNAc(b1-2)Man(a1-3)[Neu5Ac(a2-3)Gal(b1-4)GlcNAc(b1-3)Gal(b1-4)GlcNAc(b1-3)Gal(b1-4)GlcNAc(b1-2)Man(a1-6)]GalNAc
How it was run: as §1

[23] = biological target: Neu5Ac(a2-3)Gal(b1-4)GlcNAc(b1-3)Gal(b1-4)GlcNAc(b1-3)GalNAc
How it was run: as §1

[24] = biological target: Neu5Ac(a2-3)Gal(b1-4)GlcNAc(b1-3)Gal(b1-4)GlcNAc(b1-3)[Neu5Ac(a2-3)Gal(b1-4)GlcNAc(b1-3)Gal(b1-4)GlcNAc(b1-6)]GalNAc
How it was run: as §1

[25] = biological target: Neu5Ac(a2-3)Gal(b1-4)GlcNAc(b1-3)Gal(b1-4)GlcNAc(b1-6)[Gal(b1-3)]GalNAc
How it was run: as §1

[26] = biological target: Neu5Ac(a2-3)Gal(b1-4)GlcNAc(b1-3)Gal(b1-4)[Fuc(a1-3)]GlcNAc
How it was run: as §1

[27] = biological target: Neu5Ac(a2-3)Gal(b1-4)GlcNAc(b1-3)GalNAc
How it was run: as §1

[28] = biological target: Neu5Ac(a2-3)Gal(b1-4)GlcNAc(b1-3)[Neu5Ac(a2-3)Gal(b1-4)GlcNAc(b1-6)]GalNAc
How it was run: as §1

[29] = biological target: Neu5Ac(a2-3)Gal(b1-4)GlcNAc(b1-6)GalNAc
How it was run: as §1

B1: Blon0732mut (Bifidobacterium longum) (protein)
chain: MPTSEHKADDATRHLTLIPAPVTLEYTHGTALIGPLVTIEDADQSWETLPIEQLSDELRHRYGVTVLRRRTHGTVISLGLDSRLAHDEYTLDVSESEGIRVRGGGESGLRYGLQTLRQIIGQTSRAIPCLHIQDKPAFAVRAYSLDVTRGRVPTMEFLTWFVDQLALYKYNQFQLYVEHAFAFVELSEAWRGTDPLTAADITYLDEYCARRGIELVPSLATFGHMYMNLRTREHRGLGEFPEDADRPFSFIERMEHHTLNAADPKAHDFASRLIEEYAPLFRSKSFNIGGNETFDLGRGRSAQDAPEAGRDELYAGFVRDLCETLARHGRQPMLWADIALESPRTMDLLPGDITMLNWMYEPQIDESKIQTIATQGRRQFVCPAVRAWSRFFPDYAGAWLNTYHMALAGTKYDAEGMVVTDWGDYGHVNDPRLSVPGLCYGAQNAWNPIEIDAHEMNRRISALVYGDESGRIMDCLARIDSDGVSFPWDLAVQVLELEYGSGTGALNMDVAACMERSSGGKLTLDRTLGCDDARRRMLQWNRERIERRRDCDQVLRDCGDAFAGLDKGGLTAEFLSVMLDGQRLFNELGEELLALADGKDVGSGANRLAADLELWFERYRAQWLSVGRHAELARIAHVVWSLADILRRGAL
For B1, the “glycan array binding signal (z-score)” value [1] was -0.898, the “glycan array binding signal (z-score)” value [2] was -0.002 and the “glycan array binding signal (z-score)” value [3] was -0.681. For the same binder, the “glycan array binding signal (z-score)” value [4] was -0.432, the “glycan array binding signal (z-score)” value [5] was -1.23 and the “glycan array binding signal (z-score)” value [6] was 0.088. The “glycan array binding signal (z-score)” value (Neu5Ac(a2-3)Gal(b1-4)Glc) was 1.48, the “glycan array binding signal (z-score)” value [7] was -0.536 and the “glycan array binding signal (z-score)” value [8] was 0.751. The “glycan array binding signal (z-score)” value [9] was -0.016, the “glycan array binding signal (z-score)” value [10] was -0.083 and the “glycan array binding signal (z-score)” value [11] was -1.14. The “glycan array binding signal (z-score)” value [12] was -0.363, the “glycan array binding signal (z-score)” value [13] was -1.45 and the “glycan array binding signal (z-score)” value [14] was -0.492. For the same binder, the “glycan array binding signal (z-score)” value [15] was -0.394, the “glycan array binding signal (z-score)” value [16] was 1.28 and the “glycan array binding signal (z-score)” value [17] was -0.904. For the same binder, the “glycan array binding signal (z-score)” value [18] was -0.715, the “glycan array binding signal (z-score)” value [19] was -0.293 and the “glycan array binding signal (z-score)” value [20] was -0.481. The “glycan array binding signal (z-score)” value [21] was -0.809, the “glycan array binding signal (z-score)” value [22] was 0.615 and the “glycan array binding signal (z-score)” value [23] was -0.716. The “glycan array binding signal (z-score)” value [24] was -0.21, the “glycan array binding signal (z-score)” value [25] was -0.226 and the “glycan array binding signal (z-score)” value [26] was -0.546. The “glycan array binding signal (z-score)” value [27] was -0.609, the “glycan array binding signal (z-score)” value [28] was -0.434 and the “glycan array binding signal (z-score)” value [29] was -0.433.
